PubChem BioAssay AID1259424 | University of Nebraska Medical Center, 2018
In all, the deposit lists about 14,000 reagents; this is a random part of them. 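Higher correlation or smaller distance means closer resemblance to KSR1 loss; control wells, including KSR1 knockdowns, recur on many plates.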 Not all columns of the deposit are shown. Reagent sequences are not shown. Not given: the time to read-out.

- Purpose: 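Find knockdowns that reproduce the expression shifts seen after KSR1 loss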 (primary screen)
- Cells: human HCT116 colon cancer cells
- Reagents: siRNA pool against human genes, 50 nM
- Read-out: 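Six signature mRNAs by branched-DNA multiplex assay, scaled to two housekeeping genes and non-targeting median, log2; matched to mean KSR1 knockdown profile by Pearson correlation and euclidean distance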
- Scale: mean correlation with KSR1 profile: higher = expression change more like KSR1 knockdown

gene knocked down | mean correlation with KSR1 profile
EVX1 (even-skipped homeobox 1) | 0.667
ITSN1 (intersectin 1) | 0.231
KLF16 (KLF transcription factor 16) | 0.737
MTSS1 (MTSS I-BAR domain containing 1) | -0.471
CYP2S1 (cytochrome P450 family 2 subfamily S member 1) | 0.282
TSPYL1 (TSPY like 1) | 0.0231
YWHAH | 0.221
LRRN3 (leucine rich repeat neuronal 3) | -0.39
FOXM1 (forkhead box M1) | 0.364
RERE (arginine-glutamic acid dipeptide repeats) | 0.0351
FURIN (furin, paired basic amino acid cleaving enzyme) | -0.202
CFAP68 (cilia and flagella associated protein 68) | -0.342
IFT172 (intraflagellar transport 172) | -0.475
TTC29 (tetratricopeptide repeat domain 29) | 0.16
SNRPD1 (small nuclear ribonucleoprotein D1 polypeptide) | 0.189
SKI (SKI proto-oncogene) | -0.316
ABCA6 (ATP binding cassette subfamily A member 6) | -0.101
ELF4 (E74 like ETS transcription factor 4) | 0.12
LHB (luteinizing hormone subunit beta) | 0.351
NR1H4 (nuclear receptor subfamily 1 group H member 4) | -0.741
WNK3 (WNK lysine deficient protein kinase 3) | -0.0113
ACADL (acyl-CoA dehydrogenase long chain) | -0.317
FARSA (phenylalanyl-tRNA synthetase subunit alpha) | -0.388
TRIM8 (tripartite motif containing 8) | 0.0577
WDR93 (WD repeat domain 93) | -0.436
MAP7 (microtubule associated protein 7) | 0.00783
CELF5 (CUGBP Elav-like family member 5) | -0.358
RAB27A (RAB27A, member RAS oncogene family) | 0.409
FBXL6 (F-box and leucine rich repeat protein 6) | -0.0811
MADD (MAP kinase activating death domain) | -0.26
SNAP23 (synaptosome associated protein 23) | -0.235
CARD6 (caspase recruitment domain family member 6) | 0.0397
ESYT1 (extended synaptotagmin 1) | -0.00514
DUS2 (dihydrouridine synthase 2) | -0.0817
UFD1 (ubiquitin recognition factor in ER associated degradation 1) | 0.0223
ZNF691 (zinc finger protein 691) | -0.746
USP25 (ubiquitin specific peptidase 25) | -0.414
PPP2R5D (protein phosphatase 2 regulatory subunit B'delta) | -0.648
DCTN6 (dynactin subunit 6) | 0.000967
PIGL (phosphatidylinositol glycan anchor biosynthesis class L) | 0.915
SCP2 | 0.625
TNXB (tenascin XB) | 0.437
CA8 (carbonic anhydrase 8 (inactive)) | -0.348
KMO (kynurenine 3-monooxygenase) | -0.265
KYAT3 (kynurenine aminotransferase 3) | -0.598
ATP1B3 (ATPase Na+/K+ transporting subunit beta 3) | 0.257
TMEM70 (transmembrane protein 70) | 0.517
BOP1 (BOP1 ribosomal biogenesis factor) | -0.489
MRPS18B (mitochondrial ribosomal protein S18B) | -0.339
TM6SF1 (transmembrane 6 superfamily member 1) | 0.0182

3 entries from above, sorted by “mean correlation with KSR1 profile”, ascending.
gene knocked down | mean correlation with KSR1 profile
FURIN (furin, paired basic amino acid cleaving enzyme) | -0.202
RERE (arginine-glutamic acid dipeptide repeats) | 0.0351
FOXM1 (forkhead box M1) | 0.364
